PubChem BioAssay AID1508588, Peter MacCallum Cancer Centre, 2020

Purpose: 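Which gene losses make BRAF-mutant melanoma cells more responsive to vemurafenib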 (primary screen)
Cells: human WM266.4 melanoma cells (BRAF V600 mutant)
Reagents: siRNA pool against human genes, 40 nM
Time to read-out: 96 h from transfection to read-out
Challenge: vemurafenib 300 nM (about IC25), added 48 h after transfection, for 48 h; comparison arm got DMSO vehicle only
Detection: 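Ratios to non-targeting siRNA for cell gain, counted as DAPI nuclei after minus before drug and averaged over two replicates, and for absorbance-read medium lactate per cell; both binned into fold-change classes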
Scale: cell gain with vemurafenib: higher = more cell gain than with non-targeting siRNA; lactate per cell with vemurafenib: higher = more lactate made per cell
Active means: 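a knock-down counts as enhancing when its fold-change classes with vehicle and with vemurafenib, taken together, show a stronger drug effect on cell gain or lactate per cell; exact class pairs not stated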
Meaning of the calls: active = enhances vemurafenib effect; inactive = no enhancement seen
In all, the deposit lists about 18,000 reagents; this is a part drawn at random. Of all reagents, 790 (4.4%) were called active. 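Calls rest on a combination of fold-change classes in drug and vehicle arms, not all shown here.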 A number with no mark means an inactive call. No sequences are given here.

The first 2 entries as a preview:
no.	gene	cell gain with vemurafenib	lactate per cell with vemurafenib
1	L1CAM-AS1 (L1CAM antisense RNA 1)	0.56	1.14
2	ESR1 (estrogen receptor 1)	1.19	0.64

The listing, from the first entry:
no.	gene	cell gain with vemurafenib	lactate per cell with vemurafenib
1	L1CAM-AS1 (L1CAM antisense RNA 1)	0.56	1.14
2	ESR1 (estrogen receptor 1)	1.19	0.64
3	GABRB3 (gamma-aminobutyric acid type A receptor subunit beta3)	0.43	0.83
4	CAPZA3 (capping actin protein of muscle Z-line subunit alpha 3)	0.58	0.86
5	TMTC4 (transmembrane O-mannosyltransferase targeting cadherins 4)	0.66	1.02
6	MED13L (mediator complex subunit 13L)	0.38	1.02
7	PIGQ (phosphatidylinositol glycan anchor biosynthesis class Q)	0.54	0.7
8	ZNF155 (zinc finger protein 155)	0.61	0.68
9	ACKR1 (atypical chemokine receptor 1 (Duffy blood group))	0.38	0.38
10	ACAA1 (acetyl-CoA acyltransferase 1)	0.68	0.58
11	HPS3 (HPS3 biogenesis of lysosomal organelles complex 2 subunit 1)	0.67	1.23
12	PCP4 (Purkinje cell protein 4)	0.69	1.28
13	POC1B (POC1 centriolar protein B)	0.33	1.25
14	FEN1 (flap structure-specific endonuclease 1)	0.53	0.93
15	PLAT (plasminogen activator, tissue type)	0.63	0.98
16	DNAJC22 (DnaJ heat shock protein family (Hsp40) member C22)	0.82	0.5
17	ARHGAP35 (Rho GTPase activating protein 35)	0.82	0.69
18	CA5A (carbonic anhydrase 5A)	0.51	1.07
19	HRG (histidine rich glycoprotein)	0.4	1.24
20	EVA1C (eva-1 homolog C)	0.73	1.52
21	CNTNAP3 (contactin associated protein family member 3)	0.34	1.13
22	PPM1M (protein phosphatase, Mg2+/Mn2+ dependent 1M)	0.89	0.67
23	DYNC2LI1 (dynein cytoplasmic 2 light intermediate chain 1)	0.27	1.31
24	SOX17 (SRY-box transcription factor 17)	1.05	0.87
25	MRPL46 (mitochondrial ribosomal protein L46)	0.64	0.76
26	TPRKB (TP53RK binding protein)	0.59	0.78
27	FRA10AC1 (FRA10A associated CGG repeat 1)	0.6	1.31
28	MSX2 (msh homeobox 2)	0.91	0.96
29	ZYX (zyxin)	0.55	1.64
30	PTCH1 (patched 1)	0.8	0.92
31	KDM6B (lysine demethylase 6B)	0.08	1.24
32	RAET1L (retinoic acid early transcript 1L)	0.75	1.64
33	SMIM29 (small integral membrane protein 29)	0.5	0.92
34	IDH3A (isocitrate dehydrogenase (NAD(+)) 3 catalytic subunit alpha)	0.36	0.57
35	GPS1 (G protein pathway suppressor 1)	0.11	1.73
36	CLCN1 (chloride voltage-gated channel 1)	0.58	1.12
37	SPATA19 (spermatogenesis associated 19)	0.46	1.83
38	SIPA1L1 (signal induced proliferation associated 1 like 1)	0.35	0.69
39	CIMIP5 (ciliary microtubule inner protein 5)	0.43	1.57
40	CPO (carboxypeptidase O)	0.78	0.64
41	PGLYRP1 (peptidoglycan recognition protein 1)	0.43	1.02
42	PAEP (progestagen associated endometrial protein)	0.46 (active)	0.18
43	TAS2R45 (taste 2 receptor member 45)	0.49	0.82
44	SF3B4 (splicing factor 3b subunit 4)	0.05	1.23
45	UNG (uracil DNA glycosylase)	0.44	0.86
46	RWDD1 (RWD domain containing 1)	0.27	0.83
47	IRS1 (insulin receptor substrate 1)	0.02	3.38
48	WDR49 (WD repeat domain 49)	0.39	0.94
49	FRMPD2 (FERM and PDZ domain containing 2)	0.05 (active)	-0.14
50	CHRND (cholinergic receptor nicotinic delta subunit)	0.93	0.63
51	GGCT (gamma-glutamylcyclotransferase)	0.43	1.46
52	ERCC6 (ERCC excision repair 6, chromatin remodeling factor)	0.02	1.01
53	ATP5IF1 (ATP synthase inhibitory factor subunit 1)	0.73	0.97
54	ODF2L (outer dense fiber of sperm tails 2 like)	0.85	1.15
55	LRRC8E (leucine rich repeat containing 8 VRAC subunit E)	0.63	1.8
56	CYB5R5 (cytochrome b5 reductase 5 (putative))	0.45	1.17
57	MRGPRG (MAS related GPR family member G)	0.52	1.34
